In PubChem BioAssay AID256 (DTP/NCI, 2004):
The list is a part of this screen's results and no random one: it is rich in T/C values a quarter to a half above the control, in often repeated tests (any T/C) and in doses without a T/C. Further doses and runs are listed elsewhere. T/C: endpoint of the treated group in % of that of the vehicle group. Some entries give survivors of the animals treated and no T/C: the source holds a T/C of zero for them, seemingly a mark for toxic or unscored doses. Some survivor counts are full or nearly so, which does not show that the dose was tolerated: survival well below the control is almost never listed, so the zero probably covers shortened survival too. Counts of survivors are from the toxicity check (mostly the fifth day) where no day follows; animals may have died later. Schedule codes are those of the source, taken here to give the interval after Q, in days (D) or hours (H), and the number of doses after X. Some doses were run more than once; the results are listed from low to high. Where survival is the endpoint, the PubChem record calls one and a half times the control and up active, and a quarter to a half above the control has no call in these data; cut-offs in other NCI protocols can differ. Marks such as (2×) count equal records among those shown.

Tested on: CD2F1 mice, L1210 leukemia ip, survival T/C
Assay: NCI In Vivo Anticancer Drug Screen. Data for tumor model L1210 Leukemia (intraperitoneal) in CD2F1 (CDF1) mice
Conditions: higher T/C = longer survival
In short: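 Vehicle-treated tumor-bearing mice served as controls (C) for compound-treated mice (T). Reported figure is T divided by C.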

[1] = T/C endpoint: mean survival time, dose: 50.0 mg/kg/injection, schedule: Q01DX009 (ip), vehicle: saline with Tween-80
[2] = T/C endpoint: mean survival time, dose: 100.0 mg/kg/injection, schedule: Q01DX009 (ip), vehicle: saline with Tween-80
[3] = T/C endpoint: mean survival time, dose: 200.0 mg/kg/injection, schedule: Q01DX009 (ip), vehicle: saline with Tween-80
[4] = T/C endpoint: mean survival time, dose: 400.0 mg/kg/injection, schedule: Q01DX009 (ip), vehicle: saline with Tween-80
[5] = T/C endpoint: mean survival time, dose: 400.0 mg/kg/injection, schedule: Q04DX003 (ip), vehicle: saline with Tween-80
[6] = T/C endpoint: mean survival time, dose: 400.0 mg/kg/injection, schedule: Q01DX001 (ip), vehicle: saline with Tween-80
[7] = T/C endpoint: mean survival time, dose: 4.0 mg/kg/injection, schedule: Q01DX005 (ip), vehicle: sodium bicarbonate
[8] = T/C endpoint: mean survival time, dose: 100.0 mg/kg/injection, schedule: Q04DX003 (ip), vehicle: saline with Tween-80
[9] = T/C endpoint: mean survival time, dose: 200.0 mg/kg/injection, schedule: Q04DX003 (ip), vehicle: saline with Tween-80
[10] = T/C endpoint: mean survival time, dose: 100.0 mg/kg/injection, schedule: Q04DX002 (ip), vehicle: saline with Tween-80
[11] = T/C endpoint: mean survival time, dose: 200.0 mg/kg/injection, schedule: Q04DX002 (ip), vehicle: saline with Tween-80
[12] = T/C endpoint: mean survival time, dose: 400.0 mg/kg/injection, schedule: Q04DX002 (ip), vehicle: saline with Tween-80
[13] = T/C endpoint: mean survival time, dose: 200.0 mg/kg/injection, schedule: Q01DX001 (ip), vehicle: saline with Tween-80

## CCOc1ccc2ccccc2c1C(=O)N(CCCl)CCCl
[1]
  survivor count: 6 of 6
[2]
  survivor count: 5 of 6
[3]
  survivor count: 1 of 6
[4]
  survivor count: 0 of 6

## O=C(SCN1CCCCC1)c1ccccc1
[3]
  survivor count: 4 of 6
[5]
  survivor count: 0 of 6

## O=C1OC2CC1(O)CC(O)C2O (configuration not stated)
[6]
  survivor count: 6 of 6

## Cc1c(O)/c(=C\O)c2nc3c(=O)ccc(C(=O)NCCN(C)C)c3[nH]c2c1=O
T/C endpoint: median survival time, dose: 30.0 mg/kg/injection, schedule: Q01DX005 (ip), vehicle: water
  T/C: 125 % of control
T/C endpoint: median survival time, dose: 50.0 mg/kg/injection, schedule: Q01DX005 (ip), vehicle: water
  T/C: 128, 135, 145 % of control
T/C endpoint: median survival time, dose: 83.3 mg/kg/injection, schedule: Q01DX005 (ip), vehicle: water
  T/C: 136 % of control
T/C endpoint: median survival time, dose: 100.0 mg/kg/injection, schedule: Q01DX005 (ip), vehicle: water
  T/C: 130 and 147 % of control
T/C endpoint: median survival time, dose: 138.88 mg/kg/injection, schedule: Q01DX005 (ip), vehicle: water
  T/C: 135 % of control
T/C endpoint: median survival time, dose: 200.0 mg/kg/injection, schedule: Q01DX005 (ip), vehicle: water
  survivor count: 3 of 6 and 6 of 6

## COc1ccccc1C1N(C)CCCN1C
T/C endpoint: mean survival time, dose: 100.0 mg/kg/injection, schedule: Q04DX003 (ip), vehicle: saline sonified
  survivor count: 0 of 6
T/C endpoint: mean survival time, dose: 200.0 mg/kg/injection, schedule: Q04DX003 (ip), vehicle: saline sonified
  survivor count: 0 of 6
T/C endpoint: mean survival time, dose: 400.0 mg/kg/injection, schedule: Q04DX003 (ip), vehicle: saline sonified
  survivor count: 0 of 6

## Nc1nc(N)c2nc(CSc3ccc(C(=O)NC(CCC(=O)O)C(=O)O)cc3)ccc2n1 (configuration not stated)
T/C endpoint: mean survival time, dose: 0.25 mg/kg/injection, schedule: Q01DX005 (ip), vehicle: sodium bicarbonate
  T/C: 136 % of control
T/C endpoint: mean survival time, dose: 0.5 mg/kg/injection, schedule: Q01DX005 (ip), vehicle: sodium bicarbonate
  T/C: 140 % of control
T/C endpoint: mean survival time, dose: 1.0 mg/kg/injection, schedule: Q01DX005 (ip), vehicle: sodium bicarbonate
  T/C: 142 and 144 % of control
T/C endpoint: mean survival time, dose: 2.0 mg/kg/injection, schedule: Q01DX005 (ip), vehicle: sodium bicarbonate
  T/C: 142 % of control
[7]
  T/C: 148 % of control
  survivor count: 6 of 6
T/C endpoint: mean survival time, dose: 8.0 mg/kg/injection, schedule: Q01DX005 (ip), vehicle: sodium bicarbonate
  survivor count: 5 of 6
T/C endpoint: mean survival time, dose: 16.0 mg/kg/injection, schedule: Q01DX005 (ip), vehicle: sodium bicarbonate
  survivor count: 5 of 6

## Cc1cc(C)c(NC(=O)CC#N)cc1C
[8]
  T/C: 86 (2×) and 92 % of control
  survivor count: 3 of 3
[9]
  survivor count: 3 of 3 and 6 of 6
[5]
  survivor count: 3 of 3

## Cc1ccc(NC2=NCCS2)c(C)c1
[10]
  T/C: 89, 97, 98, 100 % of control
[11]
  survivor count: 0 of 3 and 1 of 6
[12]
  survivor count: 0 of 3 and 0 of 6

## CC1=CC(C)(C)Nc2ccc(CSc3ccccc3)cc21
T/C endpoint: mean survival time, dose: 100.0 mg/kg/injection, schedule: Q01DX009 (ip), vehicle: DMSO
  survivor count: 5 of 6
T/C endpoint: mean survival time, dose: 200.0 mg/kg/injection, schedule: Q01DX009 (ip), vehicle: DMSO
  survivor count: 2 of 6
T/C endpoint: mean survival time, dose: 200.0 mg/kg/injection, schedule: Q01DX009 (ip), vehicle: other
  survivor count: 0 of 6
T/C endpoint: mean survival time, dose: 400.0 mg/kg/injection, schedule: Q01DX009 (ip), vehicle: DMSO
  survivor count: 0 of 6
T/C endpoint: mean survival time, dose: 400.0 mg/kg/injection, schedule: Q01DX009 (ip), vehicle: other
  survivor count: 0 of 6

## C[n+]1ccc(Nc2ccc(NC(=O)c3ccc(Nc4cc[n+](C)c5ccc([N+](=O)[O-])cc45)cc3)cc2)cc1
T/C endpoint: mean survival time, dose: 8.0 mg/kg/injection, schedule: Q01DX009 (ip), vehicle: water
  T/C: 141 % of control
T/C endpoint: mean survival time, dose: 400.0 mg/kg/injection, schedule: Q04DX003 (ip), vehicle: saline
  T/C: 148 % of control

## Nc1nc(N)c(-c2ccc(Cl)cc2)c(CBr)n1
[13]
  survivor count: 0 of 3
[6]
  survivor count: 0 of 3

## CCOC(NCc1ccc(OC)c(OC)c1)OCC
T/C endpoint: mean survival time, dose: 400.0 mg/kg/injection, schedule: Q01DX001 (ip), vehicle: saline
  survivor count: 0 of 6

## Cc1cc(Cl)nc(N)n1
T/C endpoint: mean survival time, dose: 400.0 mg/kg/injection, schedule: Q04DX002 (ip), vehicle: Klucel (hydroxypropylcellulose) (HPC)
  survivor count: 2 of 3

## CN(c1ccccc1)c1ccccc1
[6]
  survivor count: 5 of 6

## Nc1cccc(CCCCc2cccc(S(=O)(=O)F)c2)c1
[5]
  survivor count: 2 of 6

## [Cl][Dy]([Cl])[Cl]
[2]
  survivor count: 6 of 6

## CC1C[C@@H](O)C(NC(=O)N(CCCl)N=O)[C@@H](O)C1 (some centres not stated)
T/C endpoint: mean survival time, dose: 45.0 mg/kg/injection, schedule: Q01DX001 (ip), vehicle: saline
  survivor count: 10 of 10
T/C endpoint: mean survival time, dose: 67.0 mg/kg/injection, schedule: Q01DX001 (ip), vehicle: saline
  survivor count: 8 of 10

## CC#CCO
[4]
  survivor count: 0 of 6

## CCOC(=O)c1[nH]cnc1/N=N/N(C)CCO
[2]
  T/C: 138 % of control
[3]
  T/C: 144 % of control

## Nc1ncnc2c(C3OC(CO)C(O)C3O)[nH]nc12 (configuration not stated)
[1]
  survivor count: 3 of 6
[2]
  survivor count: 0 of 6
[3]
  survivor count: 0 of 6
[5]
  survivor count: 3 of 6

## CCC(=O)c1ccc(O)c(O)c1
[3]
  survivor count: 2 of 6
[4]
  survivor count: 1 of 6

## CC(=O)N(C)C
T/C endpoint: mean survival time, dose: 62.5 mg/kg/injection, schedule: Q01DX009 (ip), vehicle: saline
  T/C: 86, 93, 103 % of control (2×)
T/C endpoint: mean survival time, dose: 125.0 mg/kg/injection, schedule: Q01DX009 (ip), vehicle: saline
  T/C: 86, 94, 98, 103 % of control
T/C endpoint: mean survival time, dose: 250.0 mg/kg/injection, schedule: Q01DX009 (ip), vehicle: saline
  T/C: 88, 95, 97, 110 % of control
T/C endpoint: mean survival time, dose: 500.0 mg/kg/injection, schedule: Q01DX009 (ip), vehicle: saline
  T/C: 91, 97, 98, 104 % of control
T/C endpoint: mean survival time, dose: 3600.0 mg/kg/injection, schedule: Q01DX009 (ip), vehicle: saline
  survivor count: 3 of 6 and 5 of 6

## COc1ccc([NH-])cc1.COc1ccc([NH-])cc1.[Br][Pt+2][Br]
T/C endpoint: mean survival time, dose: 100.0 mg/kg/injection, schedule: Q04DX003 (ip), vehicle: distilled water + Tween-80
  survivor count: 2 of 6
T/C endpoint: mean survival time, dose: 200.0 mg/kg/injection, schedule: Q04DX003 (ip), vehicle: distilled water + Tween-80
  survivor count: 0 of 6

## CN(C)N=Nc1ccc([N+](=O)[O-])cc1C(N)=O
T/C endpoint: mean survival time, dose: 300.0 mg/kg/injection, schedule: Q01DX009 (ip), vehicle: Klucel (hydroxypropylcellulose) (HPC)
  survivor count: 6 of 6

## COC(=O)[C@H]1[C@H]2C[C@@H]3c4[nH]c5cc(OC)ccc5c4CCN3C[C@H]2C[C@@H](OC(=O)c2cc(OC)c(OC)c(OC)c2)[C@@H]1OC
T/C endpoint: mean survival time, dose: 12.0 mg/kg/injection, schedule: Q01DX009 (ip), vehicle: saline with Tween-80
  survivor count: 6 of 6
T/C endpoint: mean survival time, dose: 25.0 mg/kg/injection, schedule: Q04DX003 (ip), vehicle: saline with Tween-80
  survivor count: 6 of 6
[8]
  survivor count: 6 of 6
[9]
  survivor count: 5 of 6
[5]
  survivor count: 4 of 6

## NC1CCCCC(O)CCCC1 (configuration not stated)
T/C endpoint: mean survival time, dose: 100.0 mg/kg/injection, schedule: Q01DX001 (ip), vehicle: saline with Tween-80
  survivor count: 3 of 6
[13]
  survivor count: 1 of 6
[6]
  survivor count: 0 of 6

## Cc1cc(N2CCCN(C)CC2)nc(/N=C(\N)Nc2ccc(Cl)c(Cl)c2)n1
[9]
  survivor count: 3 of 6
[5]
  survivor count: 0 of 6

## C[S+](C)c1ccccc1
[10]
  survivor count: 0 of 3
[11]
  survivor count: 0 of 3
[12]
  survivor count: 0 of 3
